Measurements taken from paper PMC7819943, “Rice protein-binding microarrays: a tool to detect cis-acting elements near promoter regions in rice”.
This is one part of the list.

Sequences of proteins named here, by UniProt entry; tags and fusion partners are left off.
UniProt Q0JBA9, entry or part of it: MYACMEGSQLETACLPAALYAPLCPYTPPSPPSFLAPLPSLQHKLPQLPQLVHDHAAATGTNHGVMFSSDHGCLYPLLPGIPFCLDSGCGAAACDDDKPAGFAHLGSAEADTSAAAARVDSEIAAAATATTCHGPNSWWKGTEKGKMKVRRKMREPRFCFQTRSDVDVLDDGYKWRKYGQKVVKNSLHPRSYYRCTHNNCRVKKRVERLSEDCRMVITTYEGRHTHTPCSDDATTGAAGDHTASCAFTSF

What follows are sequences tested against OsWRKY34 (Oryza sativa, UniProt Q0JBA9 1-250) (assay: protein-binding microarray (RPBM); PBS, 2% BSA, 51.3 ng/ul salmon testes DNA, 50 uM zinc acetate, 200 nM TF, 25 C, 1 h; high values mean tight binding). Conditions: protein: recombinant; tags: N-terminal polyhistidine and DsRed monomer fusion (pET32a); label: CyDye5-dUTP incorporated in the synthesized complementary strand; 3' TTTTT single-stranded linker to array surface; dsDNA, one strand shown.
In short: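 Transcription factors were each fused at the N-terminus to a polyhistidine tag plus DsRed and expressed in E. coli BL21-CodonPlus before Ni–NTA purification. Binding to a double-stranded custom Agilent array was carried out with 200 nM protein at 25 °C for 1 h in PBS, 2% BSA, salmon testes DNA and 50 µM zinc acetate. The binding signal is per-feature fluorescence intensity, in arbitrary units, on an Axon 4000B scanner.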

Sequence	binding signal
CCCTTCTTTCCTTCCTTCCTACCGGCCTGCACTGCACCTTCGGAGTCACCTAGTGCAG	8280 fluorescence intensity (a.u.)
CACCACACACCTGCCGGCCCATCTGCCTACGCGTCCTGTACGGAGTCACCTAGTGCAG	8040 fluorescence intensity (a.u.)
GCGGCCGGCCGAGGGGTGGGAGCCGTCCGATCGCGGCGCGCGGAGTCACCTAGTGCAG	8550 fluorescence intensity (a.u.)
TGCTGTACGTCACCCCTGGTTTGACACTCGCGCGCAGCCTCGGAGTCACCTAGTGCAG	11300 fluorescence intensity (a.u.)
TTCTCTATATTCTTTTAGATATCTCATCCCAGCCAATTCTCGGAGTCACCTAGTGCAG	8210 fluorescence intensity (a.u.)
TGTTGGTCGCCTACAGTCAGTTAGTACTTCCTAGTTCACTCGGAGTCACCTAGTGCAG	8830 fluorescence intensity (a.u.)
GCGGCTTCGCCTCCTCGTGATTTGGGGCGCGGGTGGGTGGCGGAGTCACCTAGTGCAG	12400 fluorescence intensity (a.u.)
TGCTTTATCTCGGAGGACATTTCGATCATAATTCCAACAACGGAGTCACCTAGTGCAG	9230 fluorescence intensity (a.u.)
CCGCCGCGGAGCCCGCGGAGTCCGCCACGGTGGGGAGGGACGGAGTCACCTAGTGCAG	8060 fluorescence intensity (a.u.)
GCCACTACACAGTATGTTTCGCTTTCCTCGGGTCTACGGCCGGAGTCACCTAGTGCAG	8190 fluorescence intensity (a.u.)
CCCTCTCTCTCTCTGCTTCGAATTCCTCACCTCACCTCACCGGAGTCACCTAGTGCAG	9110 fluorescence intensity (a.u.)
GGGTTGGGTGGGTGCTGTAATATGGGGAGATACTGACTACCGGAGTCACCTAGTGCAG	19200 fluorescence intensity (a.u.)
TGATCATTCCACCACACTCCATTTCTTCCTCCTGACCTCCCGGAGTCACCTAGTGCAG	8240 fluorescence intensity (a.u.)
CAAGAGCACGGTCTTCGAAAAACAACTTTGACCATCATTTCGGAGTCACCTAGTGCAG	9290 fluorescence intensity (a.u.)
TTCATTTTTTCTCTTCGGTTTTCACTTGGATCTTGTTGATCGGAGTCACCTAGTGCAG	9560 fluorescence intensity (a.u.)
AGACCCTCAAGCTTTCCTCTTTAGTTTTTATCTCATTTAACGGAGTCACCTAGTGCAG	8300 fluorescence intensity (a.u.)
GGGGTTTGATGGTCCTCTAAAGTTGTAGTAACTCGATATGCGGAGTCACCTAGTGCAG	8540 fluorescence intensity (a.u.)
TGATTTTGTTTGTTGATTCTTTTTCCTTGGAAAGAAACACCGGAGTCACCTAGTGCAG	8350 fluorescence intensity (a.u.)
CTTCATATTTCTGTTACTGCAGTAGCCTTTGGGTTCCTTCCGGAGTCACCTAGTGCAG	8050 fluorescence intensity (a.u.)
GGGAGATTTGTTGCAACGGAGGGCATTGAGTGGTGGGGACCGGAGTCACCTAGTGCAG	8570 fluorescence intensity (a.u.)
ACTCCCTCCTTCCCTAAATGTTTGACACCGTTGACTTTTTCGGAGTCACCTAGTGCAG	19600 fluorescence intensity (a.u.)

Look-ups from the results shown:
binding signal, TTCTCTATATTCTTTTAGATATCTCATCCCAGCCAATTCTCGGAGTCACCTAGTGCAG is entered as 8210 fluorescence intensity (a.u.)
binding signal, GGGTTGGGTGGGTGCTGTAATATGGGGAGATACTGACTACCGGAGTCACCTAGTGCAG is entered as 19200 fluorescence intensity (a.u.)
binding signal, TTCATTTTTTCTCTTCGGTTTTCACTTGGATCTTGTTGATCGGAGTCACCTAGTGCAG is entered as 9560 fluorescence intensity (a.u.)

More results follow.

Sequence	binding signal
ATCTCATCCCAGCCAATTCTGCATTCCTATGAGCACGTACCGGAGTCACCTAGTGCAG	9750 fluorescence intensity (a.u.)
AAAATCCAACGCTCAGGATCGTCTCCACCTCTCCACCGCGCGGAGTCACCTAGTGCAG	11500 fluorescence intensity (a.u.)
CTTCGGTTTGGTTATTTCCTTTCCTCGCCGCTTTTTTCTTCGGAGTCACCTAGTGCAG	14000 fluorescence intensity (a.u.)
CAGAGGCGAGTCGATGGATGCCTTTGCTTGACTTTTTCGGCGGAGTCACCTAGTGCAG	8030 fluorescence intensity (a.u.)
CACCTCATTACCCGCGCTTTCCGCCCGGCAATTACACCAACGGAGTCACCTAGTGCAG	8830 fluorescence intensity (a.u.)
TGTCCCTGAGCTCACCAGCCGCTTCAGTTCATATCGTTGACGGAGTCACCTAGTGCAG	10300 fluorescence intensity (a.u.)
TTTGCCAGTAGGTCCAATACTTCGGATCTGTTTTTTTTTCCGGAGTCACCTAGTGCAG	8210 fluorescence intensity (a.u.)
ATTATTTTTTTAATTTTCGGCACACGTGTTTTCAAATATTCGGAGTCACCTAGTGCAG	8850 fluorescence intensity (a.u.)
CCGTACCCTTAATTTGTTTTGCCTATTTAGGGTTTATTATCGGAGTCACCTAGTGCAG	8190 fluorescence intensity (a.u.)
CATCGTATCGTAACTCCATAAACCTTACACCGCATCTTGTCGGAGTCACCTAGTGCAG	8040 fluorescence intensity (a.u.)
GTTGCCAATTTTGCAGCACGGCTGATAATTGTGATTGGTCCGGAGTCACCTAGTGCAG	9000 fluorescence intensity (a.u.)
TCCCGGAAGACGTCACACCACACCGCCATCGACTCCCTCGCGGAGTCACCTAGTGCAG	8950 fluorescence intensity (a.u.)
TACCTTCTAACTGCCGACCCACCTTCACGCAGCGGCCTCTCGGAGTCACCTAGTGCAG	13300 fluorescence intensity (a.u.)
TTTTTATCAACGGTTACTGTTTCTACAATTTGTTTTTTCCCGGAGTCACCTAGTGCAG	8890 fluorescence intensity (a.u.)
AGCGATTCAATTGGTTAATTGTGTTGAAGTCTATTGTTGCCGGAGTCACCTAGTGCAG	8570 fluorescence intensity (a.u.)
TGTGCTATCTATGCTCGTTTTTTCTCAGTTTTTATTCAAACGGAGTCACCTAGTGCAG	8720 fluorescence intensity (a.u.)
AATGTACATGTCGGTCCTCCTTACTTCTCATGGCAGCAATCGGAGTCACCTAGTGCAG	8350 fluorescence intensity (a.u.)
GGCTCAGTTTATCTTGCATGGGAAGCTCTTAACAAATTCACGGAGTCACCTAGTGCAG	8470 fluorescence intensity (a.u.)
CCTGTAATCACATATCTTATGCTAGTCTTGCTTTTAACCTCGGAGTCACCTAGTGCAG	9710 fluorescence intensity (a.u.)
CACACTGTTCCTCTCGCTCGCTCGCTCGACGCCCGCCATGCGGAGTCACCTAGTGCAG	8230 fluorescence intensity (a.u.)
GGAGGTGGTGGCGCGAGGGGAAGGTGGATGTGGCGGTGGCCGGAGTCACCTAGTGCAG	10700 fluorescence intensity (a.u.)
